This assay addresses 5-hydroxytryptamine receptor 7 (Rattus norvegicus, UniProt P32305).

Protein sequences, listed by entry. Tags and fused reporters are not part of them.
UniProt P32305, whole entry: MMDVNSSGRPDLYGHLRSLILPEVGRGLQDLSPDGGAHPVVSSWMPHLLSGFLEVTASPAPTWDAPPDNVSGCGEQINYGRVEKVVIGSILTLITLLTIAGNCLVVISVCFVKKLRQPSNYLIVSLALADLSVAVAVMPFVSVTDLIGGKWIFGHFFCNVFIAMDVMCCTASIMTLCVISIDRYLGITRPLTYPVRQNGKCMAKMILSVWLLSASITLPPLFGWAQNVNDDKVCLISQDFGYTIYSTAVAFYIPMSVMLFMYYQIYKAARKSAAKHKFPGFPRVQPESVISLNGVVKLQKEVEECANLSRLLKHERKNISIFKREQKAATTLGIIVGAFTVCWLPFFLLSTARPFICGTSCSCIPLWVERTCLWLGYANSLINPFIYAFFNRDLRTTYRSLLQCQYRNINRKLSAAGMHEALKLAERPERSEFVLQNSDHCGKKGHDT

Structures can show the parent of a compound that is named as a salt.

For the compound `OCCN1CCN(CCCN2c3ccccc3Sc3ccc(C(F)(F)F)cc32)CC1` [2-[4-[3-[2-(trifluoromethyl)phenothiazin-10-yl]propyl]piperazin-1-yl]ethanol;hydrochloride], the inhibition constant Ki stood at 8 nM.

The values above are taken from BindingDB's records for PubMed 7908055 (Case Western Reserve University, 1994).
